# Assay results from PubChem BioAssay AID1491 (National Center for Advancing Translational Sciences (NCATS), 2009).
# Chains of the proteins cited; added tags and fusions are not shown. Lines headed by an entry give the natural chain unless they say otherwise; changes in a name come on top.
# UniProt Q6W5P4: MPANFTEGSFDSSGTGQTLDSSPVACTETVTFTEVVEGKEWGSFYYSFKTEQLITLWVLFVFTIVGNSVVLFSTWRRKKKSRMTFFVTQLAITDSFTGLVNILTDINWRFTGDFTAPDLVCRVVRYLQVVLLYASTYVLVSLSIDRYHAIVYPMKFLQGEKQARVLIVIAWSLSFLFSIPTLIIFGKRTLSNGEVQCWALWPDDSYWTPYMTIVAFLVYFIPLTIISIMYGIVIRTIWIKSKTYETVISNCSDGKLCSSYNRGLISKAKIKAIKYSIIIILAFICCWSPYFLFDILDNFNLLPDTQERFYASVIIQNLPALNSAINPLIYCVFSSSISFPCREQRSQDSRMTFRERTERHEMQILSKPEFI
# Values joined by “and” are separate entries in the source; they are usually repeats but may differ in a detail not shown here. Equal values may be shown once. Inconclusive results, whose numbers are uncertain, are shown with a selection of clear calls. Where the call is inconclusive, the potency comes from a doubtful curve fit. Active and inactive are the calls of the source. Calls follow the shape of the dose curve; as a rule, active = well fitted inhibition curve with a large enough effect in the main read-out, with a control signal flat; inconclusive = small, poorly fitted or top-dose-only effect, or a change in a side signal; inactive = flat fitted curve, though single readings scatter.
# Molecular target: Neuropeptide S receptor (Homo sapiens) (UniProt Q6W5P4)
# Test: Confirmation Concentration-Response Assay for Antagonists of the Neuropeptide S Receptor: cAMP Signal Transduction
# Conditions: CHO-NPSR cells, cAMP TR-FRET, antagonist mode; series mostly up to 22.3 µM
# In short: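 LANCE TR-FRET cAMP read-out: 665/620 nm emission ratio, with the 620 nm donor channel also reported, after 2 h RT detection. Stably transfected CHO-NPSR cells got compound titrations and 100 nM NPS in stimulation reagent for 60 min at 37C. IC50 came from Hill fits.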
# Potency is read from the fitted curve at half-maximal effect.
row,Compound,Potency
1,COc1ccc(/C=N/NC(=S)SC)cc1OC,"inconclusive: 5.01 µM [antagonist, partial curve]"
2,COc1ccc(N=C2S/C(=C\c3ccc(N4CCOCC4)o3)C(=O)N2CCc2c[nH]c3ccccc23)cc1,active: 2.24 µM
3,Cc1ccc2c(CSc3nc4nc(C)cc(C)n4n3)cc(=O)oc2c1,"inconclusive: 4.47 µM [inhibitor, full curve]"
4,CN(C)c1ccc(N2CN=C3SCC(=O)N3C2)cc1,inactive
5,COc1ccc(OC2C(=O)N(c3ccc(F)cc3)C2c2ccc(OC)c(OC)c2)cc1 (stereo not drawn),"inconclusive: 7.94 µM [inhibitor, partial curve]"
6,C#CC(=O)N(c1cccc(OC)c1)C(C(=O)NC1CCCC1)c1cccs1 (stereo not drawn),"inconclusive: 7.94 µM [inhibitor, partial curve, poor fit]"
7,CCC(=O)O[C@]1(C(=O)CCl)[C@@H](C)C[C@H]2[C@@H]3CCC4=CC(=O)C=C[C@]4(C)[C@@]3(F)[C@@H](O)C[C@@]21C,active: 11.2 µM
8,CC1CCN(S(=O)(=O)c2ccc(C(=O)Nc3sccc3C(N)=O)cc2)CC1,"inconclusive: 11.2 µM [inhibitor, partial curve, poor fit] and inconclusive: 22.4 µM [inhibitor, full curve]"
9,COc1cccc2sc(Nc3nc(-c4ccccn4)cs3)nc12,"inconclusive: 7.08 µM [antagonist, partial curve]"
10,O=C(/C=C/c1ccco1)NC(=S)Nc1nc(-c2ccc(Cl)cc2)cs1,"inconclusive: 11.2 µM [antagonist, partial curve]"
11,CCOC(=O)c1cnc(Nc2nc3ccccc3o2)nc1CSC(=S)N(CC)CC,inactive
12,Nn1c(COc2ccccc2)nnc1SCc1cc(=O)[nH]c2ccccc12,inactive
13,O=c1cc(-c2c(F)c(F)c(F)c(F)c2F)oc2c(F)c(F)c(F)c(F)c12,"inconclusive: 2.51 µM [inhibitor, full curve, poor fit]"
14,CN(C)C(=O)Oc1cccc([N+](C)(C)C)c1,inactive
15,CCOc1ccc(-n2c(=S)sc3c(=O)[nH]c(SCC(=O)C(C)(C)C)nc32)cc1,active: 7.08 µM
16,Cc1ccc(-c2nnn(CC(=O)Nc3ccccc3-c3ccccc3)n2)c(-n2cnnn2)c1,"inconclusive: 14.1 µM [inhibitor, partial curve, poor fit]"
17,Cc1nnc(NC(=O)c2cccc(S(=O)(=O)N3CCc4ccccc43)c2)s1,inactive
18,CC(=O)c1cc(NC(=O)c2ccccc2)c(=O)oc1/C=C/N(C)C,"inconclusive: 12.6 µM [inhibitor, partial curve, poor fit]"
19,CCOC(=O)c1c(NC(=O)CSc2nnc(-c3ccccc3)n2CC)sc(C(C)=O)c1C,"inconclusive: 14.1 µM [inhibitor, partial curve, poor fit]"
20,N=c1c2c(ncn1-c1ccccc1)Oc1ccc3ccccc3c1C2c1ccc2c(c1)OCCO2 (stereo not drawn),active: 1.41 µM
21,COc1cc(/C=C2\COC/C(=C\c3cc(OC)c(OC)c(OC)c3)C2=O)cc(OC)c1OC,"inconclusive: 11.2 µM [antagonist, partial curve]"
22,CC(C)(C)C1C/C(=C/c2ccccn2)C(=O)/C(=C/c2ccccn2)C1 (stereo not drawn),"inconclusive: 4.47 µM [antagonist, partial curve]"
23,Cc1ccc(C2CC(C(F)F)n3ncc(C(=O)Nc4c(C)nn(Cc5c(F)cccc5Cl)c4C)c3N2)cc1 (stereo not drawn),"inconclusive: 10 µM [inhibitor, full curve, poor fit]"

# Reprinted, entries 6 to 7
row,Compound,Potency
6,C#CC(=O)N(c1cccc(OC)c1)C(C(=O)NC1CCCC1)c1cccs1 (stereo not drawn),"inconclusive: 7.94 µM [inhibitor, partial curve, poor fit]"
7,CCC(=O)O[C@]1(C(=O)CCl)[C@@H](C)C[C@H]2[C@@H]3CCC4=CC(=O)C=C[C@]4(C)[C@@]3(F)[C@@H](O)C[C@@]21C,active: 11.2 µM
